Source: PubChem BioAssay AID493014 (National Center for Advancing Translational Sciences (NCATS), 2011)
The whole screen tested about 340,000 compounds, of which about 170 (0.05%) were called active. The shares of active, inactive and inconclusive entries below differ from those in the screen. Calls follow the shape of the dose curve; as a rule, active = well fitted inhibition curve with a large enough effect in the signal ratio, with a control signal flat (not every such curve was filed as active); inconclusive = small, poorly fitted or top-dose-only effect, or effect the other way, or a change in a side signal; inactive = flat fitted curve, though single readings scatter; the % refers to the signal ratio. Potencies of inconclusive entries are doubtful fits and often do not repeat.

experiment: qHTS Assay to Find Inhibitors of Chronic Active B-Cell Receptor Signaling; conditions: ABC-DLBCL IkBa-CBG/CBR reporter, luminescence ratio (green luciferase fused to IkBa over red control in TMD8 lymphoma cells), 4 h; activity change, negative = inhibition: at 46.1 µM (top of the series);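 as to activity change, negative = inhibition: plate controls were basal doxycycline-induced cells for no effect and cells given 10 µM MG132 for full effect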
Outline: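 Concentration-response series (up to 46 uM) were applied to TMD8 dual-reporter cells for 4 h at 37C with doxycycline. Green/red ratio, after filter-overlap correction, defined %Activity; red signal alone was normalised to basal cells and zero luminescence.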
Potency is read from the fitted curve at half-maximal effect.

Compound	Potency	activity change, negative = inhibition
O=C(/C=C/c1ccc[nH]1)c1ccccc1	inconclusive: 35.5 µM [falling, partial curve, poor fit]	
CC(C)c1cc(C(=O)Nc2cccc(C(F)(F)F)c2)no1		inconclusive: 12.9%
COc1ccc(C(C)=O)cc1CSc1nc2ccccc2c(=O)n1-c1ccccc1		inconclusive: 0.158%
Cc1ccc(S[C@@H](CCN2CC[C@H](C)CCC2=O)c2ccccc2)cc1		inconclusive: 28.7%
Cc1nc2c(o1)CCc1ccccc1C2N1CCN(C)CC1 (configuration not stated)		inconclusive: -3.18%
CCc1ccc(/C(C)=N/NC(=O)c2ccccn2)cc1	inconclusive: 35.5 µM [falling, single point]	
CC(NC(=O)CN1C(=O)NC2(CCCCCCC2)C1=O)c1ccccc1 (configuration not stated)		inactive: 0.554%
COc1ccc(CCNC(=O)CCC(=O)N2CCOc3ccc(C)cc32)cc1OC		inconclusive: -5.39%
Cc1nc2cc3c(cc2c(C)c1C(=O)OC(C)C)OCO3		inconclusive: 9.46%
O[C@@H](CNC[C@H](O)c1ccccc1)c1ccccc1		inactive: 8.09%
NC(=S)N/N=C1\CCOc2ccc(Cl)cc21	inconclusive: 15.8 µM [falling, single point]	
O=C(Nc1ncc(S(=O)(=O)c2ccc([N+](=O)[O-])cc2)s1)c1cccc2ccccc12		inconclusive: -3.66%
CCn1c(SCC(=O)c2ccc(O)c(O)c2)nnc1-c1ccc(C)cc1	inconclusive: 35.5 µM [falling, partial curve, poor fit]	
COc1cccc(Nc2cc(C)c3ccccc3n2)c1		inconclusive: -0.682%
CC(C)(C)NC(=O)Nc1nnc(SCC(=O)NC2CCCCC2)s1		inconclusive: 7.65%
O=C(O)CCCCNCc1ccccc1		inconclusive: 0.347%
NNc1nc(-c2ccccc2)c2cc(Br)ccc2n1		inconclusive: 5.67%
O=C(NCCc1ccccc1)c1ccnc(/C=N/O)c1	inconclusive: 16.4 µM [falling, single point]	
Cc1ccnc(NC(=O)c2cccc(NC(=O)CC3SC(N4CCCCC4)=NC3=O)c2)c1 (configuration not stated)	inconclusive: 20.6 µM [falling, partial curve]	
Nc1nc2nc(-c3ccc(F)cc3)cc(C(F)(F)F)n2n1		inconclusive: -2.16%
Cc1cc(OC(C)C(=O)Nc2ccncc2)ccc1Cl (configuration not stated)		inactive: -2.37%

Compound	Potency	activity change, negative = inhibition
COc1ccc(/C=N/NC(=O)C[n+]2ccccc2)c(OC)c1		inactive: -0.0065%
CCC(=O)N/C(N)=N/c1nc(C)c2cc(OC)ccc2n1		inactive: -4.77%
CCc1ccc(C2CC(c3cccc(OC)c3)n3nc(N)nc3N2)cc1 (configuration not stated)		inconclusive: 2.47%
COc1ccc2c(c1)CCC/C2=N/OC(=O)c1ccccc1OC		inactive: -12.4%
Cc1ccc(S(=O)(=O)NCCc2sc3nc(-c4ccccc4)nn3c2C)cc1C	inconclusive: 1.41 µM [activator, full curve, poor fit]	
CCCCOc1ccc(C(=O)Nc2ccncc2)cc1		inconclusive: 9.52%
COc1ccc(C(CNC(=O)c2cc(SC)ccc2Cl)N(C)C)cc1 (configuration not stated)	inconclusive: 22.4 µM [falling, single point]	
O=C(Nc1nnc(-c2ccc3c(c2)CCCC3)o1)c1ccccc1Cl	inconclusive: 13 µM [falling, partial curve]	
O=C(Nc1ccon1)c1cccc(S(=O)(=O)N2CCCCC2)c1		inconclusive: 2.34%
COc1cccc(NC(=O)COC(=O)c2ccccc2C(=O)N2CCN(c3ccccc3)CC2)c1		inconclusive: -14.1%
CCN(CC)S(=O)(=O)c1cccc(-c2n[nH]c(=S)n2/N=C/c2ccc(OC(F)F)cc2)c1		inconclusive: 18.8%
O=C(CCNC(=O)Cn1ccc2ccccc2c1=O)NCCN1CCc2ccccc2C1		inconclusive: 7.4%
COC(=O)c1ccc(S(=O)(=O)N2CCCCC2)o1		inconclusive: 24.9%
Cc1ccc(-c2csc(-c3cc(C)on3)n2)cc1		inconclusive: 14.1%
Cc1ccc(CNS(=O)(=O)c2ccc(C(C)(C)C)cc2)n1C		inconclusive: 0.114%
CC(=O)c1cccc(NC(=O)Nc2cnn(Cc3ccc(Cl)cc3Cl)c2)c1		inactive: 0.23%
COc1ccc(C2N(Cc3ccccc3)CCN2Cc2ccccc2)cc1[N+](=O)[O-]	inconclusive: 11.2 µM [falling, partial curve]	
O=C(OCc1cccc([N+](=O)[O-])c1)c1ccncc1		inconclusive: 9.07%
NNC(=O)c1ccc(COc2ccc(Br)cc2)o1	inconclusive: 10 µM [falling, partial curve]	
N#Cc1c(N)nc(SCc2ccccc2)c(C#N)c1-c1ccco1		inconclusive: -1.2%
CC(=O)/C(N=Nc1cc2c(cc1[N+](=O)[O-])OCCO2)=C(\C)O		inactive: -5.97%

Three structures from above, ordered by molecular weight, rising:
Compound	Potency	activity change, negative = inhibition
Cc1cc(OC(C)C(=O)Nc2ccncc2)ccc1Cl (configuration not stated)		inactive: -2.37%
COc1ccc2c(c1)CCC/C2=N/OC(=O)c1ccccc1OC		inactive: -12.4%
COc1ccc(C2N(Cc3ccccc3)CCN2Cc2ccccc2)cc1[N+](=O)[O-]	inconclusive: 11.2 µM [falling, partial curve]	

Additional entries follow:

Compound	Potency	activity change, negative = inhibition
COc1ccc2c(CC(=O)Nc3cccc(S(=O)(=O)N4CCOCC4)c3)coc2c1		inactive: -18.8%
CC(C)N(C)Cc1cn(C)nc1-c1ccc(Oc2ccccc2)cc1		inconclusive: 5.61%
CCCCc1nc(NCCNC(=O)c2ccco2)c(C#N)c2c1CSC(C)(C)C2		inactive: 18%
O=C(CCl)N(Cc1cccc([N+](=O)[O-])c1)c1cccc(Cl)c1		inconclusive: 14.2%
CCOc1ccccc1-n1c(COc2ccc(C)cc2)nnc1SCC(N)=O		inconclusive: -2.06%
Cc1cc(C)nc(NC(=O)c2ccccc2O)n1		inconclusive: -0.967%
COc1ccc(-c2[nH]c(-c3ccc(F)cc3)nc2SCC(=O)NCc2ccco2)cc1OC		inconclusive: 0.748%
O/N=C1\CCCCc2ccccc21		inconclusive: -0.579%
CCOC(=O)c1[nH]cnc1C(=O)Nc1ccccc1	inconclusive: 4.47 µM [rising, full curve, poor fit]	
COc1ccc(C)cc1NC(=O)c1cnc2n(c1=O)CCS2		inconclusive: 4.68%
CCCCNC(=O)CC1N=C2c3ccccc3N=C(SCC(=O)Nc3cccc(C)c3)N2C1=O (configuration not stated)		inconclusive: 12.9%
Cc1[nH]c(C)c(S(=O)(=O)N2CCN(c3ccccc3F)CC2)c1C(=O)N1CCCC1		inactive: 0.747%
CN(C)CCn1c2c(c(SCC(=O)Nc3nccs3)nc1=O)CCCC2		inconclusive: -1.41%
CCc1ccc(/C=N/NC(=O)c2cc(-c3ccncc3)nc3ccccc23)s1	inconclusive: 7.31 µM [falling, partial curve]	
CC(C)c1cc(C(=O)Nc2cccnc2)no1	inconclusive: 13 µM [falling, partial curve]	
CCOC(=O)c1c(/N=C/c2cccc([N+](=O)[O-])c2O)sc2c1CCC2		inconclusive: -7.37%
CCc1ccc(Nc2nnc(SCC(=O)N(C)C3CCS(=O)(=O)C3)s2)cc1 (configuration not stated)	inconclusive: 22.4 µM [falling, partial curve]	
CC(C)N(Cc1nnc(-c2ccc(Cl)cc2)o1)C(=O)c1cc2ccccc2o1		inconclusive: -6.43%
O=C(N/N=C/C=C/c1ccccc1)c1ccncc1	inconclusive: 6.51 µM [falling, single point]	
COc1ccc(NC(=O)CSCC(=O)N(C)Cc2ccc3c(c2)OCCO3)cc1	inconclusive: 14.6 µM [falling, partial curve, poor fit]	
COCCCn1c(=O)/c(=C\c2ccc(OC(F)F)c(OC)c2)s/c1=C(/C#N)C(=O)NCCOC		inconclusive: -1.18%

Record cards (already shown).
O/N=C1\CCCCc2ccccc21 as listed: activity change, negative = inhibition: inconclusive: -0.579%
COCCCn1c(=O)/c(=C\c2ccc(OC(F)F)c(OC)c2)s/c1=C(/C#N)C(=O)NCCOC as listed: activity change, negative = inhibition: inconclusive: -1.18%
Cc1cc(C)nc(NC(=O)c2ccccc2O)n1 as listed: activity change, negative = inhibition: inconclusive: -0.967%
O=C(N/N=C/C=C/c1ccccc1)c1ccncc1 as listed: Potency: inconclusive: 6.51 µM [falling, single point]

Next entries follow:

Compound	Potency	activity change, negative = inhibition
CC1CCc2cc(F)cc3c(O)c(C(=O)NCC4CCCO4)c(=O)n1c23 (configuration not stated)	inconclusive: 11.6 µM [rising, partial curve]	
CCc1c(C)nc(N)n2c(SCC(=O)Nc3ccccc3OC)nnc12		inconclusive: 7.29%
NNC(=O)/C(=C/c1cccs1)NC(=O)c1ccccc1Cl	active: 11.2 µM	
O=C(COC(=O)CN1C(=O)c2ccccc2C1=O)Nc1ccc(S(=O)(=O)N2CCCC2)cc1		inconclusive: 12.9%
CCCCNc1ccc2c3c(cccc13)C(=O)N(CCCC)C2=O	inconclusive: 11.2 µM [rising, partial curve, poor fit]	
C#CCOC(=O)/C(=C/c1ccc(F)cc1)NC(C)=O		inconclusive: 0.965%
O=C(N/N=C/c1cc(Br)ccc1O)c1ccccc1Cl		inconclusive: -20.6%
CSC1=C(C#N)C(c2ccc3c(c2)OCO3)C2=C(CCCC2=O)N1 (configuration not stated)		inconclusive: 7.14%
CCCCCn1c(=O)c2ccccc2n2c(CCl)nnc12		inconclusive: -2.16%
CCn1c(SCC(=O)N=Nc2c(O)[nH]c3ccccc23)nc2ccccc21		inconclusive: -7.6%
CC1(C)C/C(=N\NC(=S)Nc2ccccc2F)c2cc(O)ccc2O1	inconclusive: 35.5 µM [falling, single point]	
C/C=C/COC(=O)c1[nH]c2c(c1C)C(=O)CC(c1ccc(N(C)C)cc1)C2 (configuration not stated)		inactive: -1.57%
Cc1cc(C(=O)NC2CCCc3ccccc32)no1 (configuration not stated)		inconclusive: -22.7%
CCC(=O)Nc1ccc(N2CCCCC2)c(C(=O)Nc2ccccc2C)c1		inconclusive: -24.1%
COc1ccc(C(=O)C2CCN(C(=O)Nc3ccc(C)cc3)CC2)cc1		inactive: 0.742%
COC(=O)C1C(=O)C=C(Nc2ccc(F)cc2)CC1c1ccc(OC)cc1 (configuration not stated)		inconclusive: 8.59%
CSCC[C@@H](C(=O)Nc1ccc2c(c1)OCCO2)N1Cc2ccccc2C1=O	inconclusive: 5.17 µM [falling, partial curve, poor fit]	
CC(C)(C)NC(=S)NNC(=O)c1ccccc1Cl	inconclusive: 23.1 µM [falling, partial curve]	
NC1=NC[C@@H](Cc2ccc(O)cc2)N1CCc1cc(C(F)(F)F)cc(C(F)(F)F)c1		inconclusive: -0.0347%
